Data as given in patent US8486898B2, “Compounds and method for inhibiting the activity of gelatinase and collagenase” (Taipei Medical University (TMU), priority 2010, dated 2013).
Some of these results come from one statement about several compounds together.

Test system: HT-1080 cell lines
Assay: MTT cell viability assay
Format: cell-based, human
Settings: all concentrations to 100 μM
Source text: HT-1080 cell line (ATCC:CCL-121) is a human skin fibroblasts tumor, which is a kind of adherent cell lines, secreting gelatinase, MMP-2 and MMP-9, to extracellular space.
Before carrying out any experimental process of HT-1080 cell lines, in order to enable HT-1080 cells to secrete more MMP-2 and MMP-9 to extracellular space, the medium RPMI-1640 containing 0.5% FBS (without phenol red) was applied when conducting the subcultivation process. After centrifugation, the medium RPMI-1640 containing only 0.5% FBS was added into centrifugal vials to resuspend the cells, and 20 μL of cell suspension solution was transferred into eppendorfs to mixed with 20 μL Trypan blue for cell dyeing. Finally, calculation of the cell concentration was accomplished by using hemocytometer through optical microscope.
Suitable amount of the medium RPMI-1640 (based on the cell concentration obtained previous) containing only 0.5% FBS (without phenol red) was applied into the remaining the cell suspension solution, as the resulting concentration of the cell suspension solution around 5×10^5 cells/mL. Afterwards, 500 μL of cell suspension solutions was transferred onto 24-well cell culture plates, followed by 24 hours incubation at 37° C. for the further experiments.
To test the cytotoxicity of 4GX and 4G to HT-1080 cell lines, the cell viability assay need to be conducted. […]

With `O=C(OC[C@H]1O[C@@H](OC(=O)c2cc(O)c(O)c(O)c2)[C@H](OC(=O)c2cc(O)c(O)c(O)c2)[C@@H](OC(=O)c2cc(O)c(O)c(O)c2)[C@@H]1O)c1cc(O)c(O)c(O)c1` [4G, 1,2,3,6-tetra-O-galloyl-β-D-glucose] the cell vitalities was “above 85%”.
For `O=C(OCC1OC(OC(=O)c2cc(O)c(O)c(O)c2)C(OC(=O)c2cc(O)c(O)c(O)c2)C(OC(=O)c2cc(O)c(O)c(O)c2)C1OC(=O)c1ccc(O)cc1)c1cc(O)c(O)c(O)c1` [4GX, 1,2,3,6-tetra-O-galloyl-4-O-(4-hydroxybenzoyl)-β-D-glucopyranoside], the cell vitalities was “above 85%”.
